At least one structure is not confirmed: it was looked up by name or label, or the drawing left a doubt.
Assays:
[1] = target: recombinant RRM1/RRM2 complex (Homo sapiens (Human), UniProt P31350); assay: in vitro holoenzyme-based RR assay, [3H]CDP reduction by HPLC; format: biochemical
Source text: Compounds that docked into the ligand binding pocket were identified using the TRIPOS FlexX docking tool and ranked using an embedded consensus docking score. […] The assay utilized recombinant RRM1/RRM2 or RRM1/RRM2 complex and measured [^3H]CDP reduction activity (i.e., CDP to dCDP) by HPLC.

Wild-type RRM2 = Wild-type RRM2 (Homo sapiens (Human), UniProt P31350); assay: Biacore ligand-protein interaction analysis; format: binding; details: 25° C.
RRM1/RRM2 interaction = RRM1/RRM2 interaction (Homo sapiens (Human), UniProt P31350); assay: Biacore interference of RRM1 binding to RRM2; details: RRM1 1 μM, COH20 3.125-25 μM
intracellular RR = intracellular RR activity in lysates of treated KB cells; format: cell-based, human; details: KB cells treated with 10 μM
Method: To confirm that the ability of COH20 to inhibit RR activity was not specific to recombinant RR, an assay was performed testing the effect of COH20 on intracellular RR. KB cells treated with 10 μM COH20 were lysed, and protein was extracted in a high salt buffer and passed through a G25 SEPHADEX® column to remove small molecules such as dNTP. The eluate was mixed with [^3H]CDP in reaction buffer to monitor RR activity. Treatment with COH20 decreased intracellular RR activity by approximately 50% (FIG. 7).

KBMDR cells = assay: real-time proliferation assay; format: cell-based, human
RRM2 point mutants [2] = assay: RR inhibition with RRM2 binding pocket point mutants; format: biochemical, human
RRM2 point mutants [3] = target: RRM2 point mutants (Homo sapiens, UniProt P31350, G233V); assay: as above; format: biochemical
KB cells [4] = assay: dNTP pools by polymerase template assay; format: cell-based, human; details: 10 μM
[5] = tested on: KB, KBHURs, and KBGem xenograft tumors; assay: mouse xenograft model (planned); format: in vivo; details: expected, experiment planned
KB cells [6] = assay: flow cytometry and annexin staining; format: cell-based, human; details: 9 or 27 μM, 24 hours

Structure (SMILES)	RR inhibition (in words) [1]	interaction with immobilized RRM2 (Wild-type RRM2)	interference with binding of RRM2 to RRM1 (RRM1/RRM2 interaction)	effect on RRM2 protein levels by Western blot (intracellular RR)	cell proliferation in KBMDR cells (KBMDR cells)	inhibition in RRM2 mutants Y323, D271, R330, E334 (RRM2 point mutants [2])	inhibition in RRM2 mutant G233V (RRM2 point mutants [3])	dATP, dCTP, dGTP, and dTTP pools (KB cells [4])	survival, tumor growth, side effects in xenograft mice [5]	cell cycle by flow cytometry (KB cells [6])
O=C(Nc1nc(-c2ccc(O)c(O)c2)cs1)c1ccccc1 [COH4]	significant RR inhibition	–	–	–	–	–	–	–	–	–
O=C(Nc1nc(-c2ccc(O)c(O)c2)cs1)c1ccc(O)c(O)c1 [COH20]	–	significant interaction	interrupt the RRM1/RRM2 interaction at the interface	no effect on RRM2 protein levels	inhibits cell proliferation in KBMDR cells	Attenuation of inhibition	enhanced COH20 inhibitor activity	decrease dATP, dCTP, dGTP, and dTTP pools	higher survival rates, decreased tumor growth, and fewer tumor-related side effects	arrests cells in S-phase in a dose-dependent manner
